This data set is described as follows: general procedure: Fmoc solid-phase peptide synthesis; Rink Amide ChemMatrix resin (100-200 mesh), Biotage, loading around 0.5 mmol/g, unless otherwise stated. As to conditions: cyclisation step; for final LC-MS purity: LCMS and HRMS.

Turning to “Ac-Cys-(NMe-Ala)-(NMe-Trp)-(tBu-Ala)-Gln-Asp-Cys-(NMe-Trp)-(dimethyl-Arg)-Gly-(4-F-Phe)-Cys-NH2”, the cyclisation yield came to 19% and the “final LC-MS purity” value is “purity 93%”.

In the case of “C-(NMe-Ala)-(1-naphthyl-Ala)-(tBu-Ala)-Q-D-C-(NMe-Trp)-(dimethyl-Arg)-G-(4-F-Phe)-C-a-NH2”, the cyclisation yield was 17% and the “final LC-MS purity” value was “purity 90%”.

For the origin of these results see patent US11866518B2 (BicycleTx Limited, priority 2020, dated 2024).
